Source: US20220074941A1, “HSP90 COMBINATION THERAPY” (Sloan-Kettering Institute for Cancer Research, priority 2011, published 2022)

B1: Heat shock 70 kDa protein 4 (protein, UniProt P34932 1-840, looked up)
Heat shock 70 kDa protein 4: MSVVGIDLGFQSCYVAVARAGGIETIANEYSDRCTPACISFGPKNRSIGAAAKSQVISNAKNTVQGFKRFHGRAFSDPFVEAEKSNLAYDIVQLPTGLTGIKVTYMEEERNFTTEQVTAMLLSKLKETAESVLKKPVVDCVVSVPCFYTDAERRSVMDATQIAGLNCLRLMNETTAVALAYGIYKQDLPALEEKPRNVVFVDMGHSAYQVSVCAFNRGKLKVLATAFDTTLGGRKFDEVLVNHFCEEFGKKYKLDIKSKIRALLRLSQECEKLKKLMSANASDLPLSIECFMNDVDVSGTMNRGKFLEMCNDLLARVEPPLRSVLEQTKLKKEDIYAVEIVGGATRIPAVKEKISKFFGKELSTTLNADEAVTRGCALQCAILSPAFKVREFSITDVVPYPISLRWNSPAEEGSSDCEVFSKNHAAPFSKVLTFYRKEPFTLEAYYSSPQDLPYPDPAIAQFSVQKVTPQSDGSSSKVKVKVRVNVHGIFSVSSASLVEVHKSEENEEPMETDQNAKEEEKMQVDQEEPHVEEQQQQTPAENKAESEEMETSQAGSKDKKMDQPPQAKKAKVKTSTVDLPIENQLLWQIDREMLNLYIENEGKMIMQDKLEKERNDAKNAVEEYVYEMRDKLSGEYEKFVSEDDRNSFTLKLEDTENWLYEDGEDQPKQVYVDKLAELKNLGQPIKIRFQESEERPKLFEELGKQIQQYMKIISSFKNKEDQYDHLDAADMTKVEKSTNEAMEWMNNKLNLQNKQSLTMDPVVKSKEIEAKIKELTSTCSPIISKPKPKVEPPKEEQKNAEQNGPVDGQGDNPGPQAAEQGTDTAVPSDSDKKLPEMDID
B2: DnaJ homolog subfamily C member 8 (protein, UniProt O75937 2-253, looked up)
DnaJ homolog subfamily C …: AASGESGTSGGGGSTEEAFMTFYSEVKQIEKRDSVLTSKNQIERLTRPGSSYFNLNPFEVLQIDPEVTDEEIKKRFRQLSILVHPDKNQDDADRAQKAFEAVDKAYKLLLDQEQKKRALDVIQAGKEYVEHTVKERKKQLKKEGKPTIVEEDDPELFKQAVYKQTMKLFAELEIKRKEREAKEMHERKRQREEEIEAQEKAKREREWQKNFEESRDGRVDSWRNFQANTKGKKEKKNRTFLRPPKVKMEQRE
B3: DnaJ homolog subfamily B member 11 (protein, UniProt Q9UBS4 23-358, looked up)
DnaJ homolog subfamily B …: GRDFYKILGVPRSASIKDIKKAYRKLALQLHPDRNPDDPQAQEKFQDLGAAYEVLSDSEKRKQYDTYGEEGLKDGHQSSHGDIFSHFFGDFGFMFGGTPRQQDRNIPRGSDIIVDLEVTLEEVYAGNFVEVVRNKPVARQAPGKRKCNCRQEMRTTQLGPGRFQMTQEVVCDECPNVKLVNEERTLEVEIEPGVRDGMEYPFIGEGEPHVDGEPGDLRFRIKVVKHPIFERRGDDLYTNVTISLVESLVGFEMDITHLDGHKVHISRDKITRPGAKLWKKGEGLPNFDNNNIKGSLIITFDVDFPKEQLTEEAREGIKQLLKQGSVQKVYNGLQGY
B4: DnaJ homolog subfamily C member 7 (protein, UniProt Q99615 2-494, looked up)
DnaJ homolog subfamily C …: AAAAECDVVMAATEPELLDDQEAKREAETFKEQGNAYYAKKDYNEAYNYYTKAIDMCPKNASYYGNRAATLMMLGRFREALGDAQQSVRLDDSFVRGHLREGKCHLSLGNAMAACRSFQRALELDHKNAQAQQEFKNANAVMEYEKIAETDFEKRDFRKVVFCMDRALEFAPACHRFKILKAECLAMLGRYPEAQSVASDILRMDSTNADALYVRGLCLYYEDCIEKAVQFFVQALRMAPDHEKACIACRNAKALKAKKEDGNKAFKEGNYKLAYELYTEALGIDPNNIKTNAKLYCNRGTVNSKLRKLDDAIEDCTNAVKLDDTYIKAYLRRAQCYMDTEQYEEAVRDYEKVYQTEKTKEHKQLLKNAQLELKKSKRKDYYKILGVDKNASEDEIKKAYRKRALMHHPDRHSGASAEVQKEEEKKFKEVGEAFTILSDPKKKTRYDSGQDLDEEGMNMGDFDPNNIFKAFFGGPGGFSFEASGPGNFFFQFG
B5: DnaJ homolog subfamily C member 9 (protein, UniProt Q8WXX5 1-260, looked up)
DnaJ homolog subfamily C …: MGLLDLCEEVFGTADLYRVLGVRREASDGEVRRGYHKVSLQVHPDRVGEGDKEDATRRFQILGKVYSVLSDREQRAVYDEQGTVDEDSPVLTQDRDWEAYWRLLFKKISLEDIQAFEKTYKGSEEELADIKQAYLDFKGDMDQIMESVLCVQYTEEPRIRNIIQQAIDAGEVPSYNAFVKESKQKMNARKRRAQEEAKEAEMSRKELGLDEGVDSLKAAIQSRQKDRQKEMDNFLAQMEAKYCKSSKGGGKKSALKKEKK
B6: Peptidyl-prolyl cis-trans isomerase FKBP4 (protein, UniProt Q02790 1-459, looked up)
Peptidyl-prolyl cis-trans …: MTAEEMKATESGAQSAPLPMEGVDISPKQDEGVLKVIKREGTGTEMPMIGDRVFVHYTGWLLDGTKFDSSLDRKDKFSFDLGKGEVIKAWDIAIATMKVGEVCHITCKPEYAYGSAGSPPKIPPNATLVFEVELFEFKGEDLTEEEDGGIIRRIQTRGEGYAKPNEGAIVEVALEGYYKDKLFDQRELRFEIGEGENLDLPYGLERAIQRMEKGEHSIVYLKPSYAFGSVGKEKFQIPPNAELKYELHLKSFEKAKESWEMNSEEKLEQSTIVKERGTVYFKEGKYKQALLQYKKIVSWLEYESSFSNEEAQKAQALRLASHLNLAMCHLKLQAFSAAIESCNKALELDSNNEKGLFRRGEAHLAVNDFELARADFQKVLQLYPNNKAAKTQLAVCQQRIRRQLAREKKLYANMFERLAEEENKAKAEASSGDHPTDTEMKEEQKSNTAGSQSQVETEA
B7: Peptidyl-prolyl cis-trans isomerase FKBP8 (protein, UniProt Q14318 1-412, looked up)
Peptidyl-prolyl cis-trans …: MASCAEPSEPSAPLPAGVPPLEDFEVLDGVEDAEGEEEEEEEEEEEDDLSELPPLEDMGQPPAEEAEQPGALAREFLAAMEPEPAPAPAPEEWLDILGNGLLRKKTLVPGPPGSSRPVKGQVVTVHLQTSLENGTRVQEEPELVFTLGDCDVIQALDLSVPLMDVGETAMVTADSKYCYGPQGRSPYIPPHAALCLEVTLKTAVDGPDLEMLTGQERVALANRKRECGNAHYQRADFVLAANSYDLAIKAITSSAKVDMTFEEEAQLLQLKVKCLNNLAASQLKLDHYRAALRSCSLVLEHQPDNIKALFRKGKVLAQQGEYSEAIPILRAALKLEPSNKTIHAELSKLVKKHAAQRSTETALYRKMLGNPSRLPAKCPGKGAWSIPWKWLFGATAVALGGVALSVVIAARN
B8: Peptidyl-prolyl cis-trans isomerase-like 2 (protein, UniProt Q13356 1-520, looked up)
RING-type E3 …: MGKRQHQKDKMYITCAEYTHFYGGKKPDLPQTNFRRLPFDHCSLSLQPFVYPVCTPDGIVFDLLNIVPWLKKYGTNPSNGEKLDGRSLIKLNFSKNSEGKYHCPVLFTVFTNNTHIVAVRTTGNVYAYEAVEQLNIKAKNFRDLLTDEPFSRQDIITLQDPTNLDKFNVSNFYHVKNNMKIIDPDEEKAKQDPSYYLKNTNAETRETLQELYKEFKGDEILAATMKAPEKKKVDKLNAAHYSTGKVSASFTSTAMVPETTHEAAAIDEDVLRYQFVKKKGYVRLHTNKGDLNLELHCDLTPKTCENFIRLCKKHYYDGTIFHRSIRNFVIQGGDPTGTGTGGESYWGKPFKDEFRPNLSHTGRGILSMANSGPNSNRSQFFITFRSCAYLDKKHTIFGRVVGGFDVLTAMENVESDPKTDRPKEEIRIDATTVFVDPYEEADAQIAQERKTQLKVAPETKVKSSQPQAGSQGPQTFRQGVGKYINPAATKRAAEEEPSTSATVPMSKKKPSRGFGDFSSW
B9: AH receptor-interacting protein; Immunophilin homolog ARA9 (protein, UniProt O00170 1-330, looked up)
AH receptor-interacting …: MADIIARLREDGIQKRVIQEGRGELPDFQDGTKATFHYRTLHSDDEGTVLDDSRARGKPMELIIGKKFKLPVWETIVCTMREGEIAQFLCDIKHVVLYPLVAKSLRNIAVGKDPLEGQRHCCGVAQMREHSSLGHADLDALQQNPQPLIFHMEMLKVESPGTYQQDPWAMTDEEKAKAVPLIHQEGNRLYREGHVKEAAAKYYDAIACLKNLQMKEQPGSPEWIQLDQQITPLLLNYCQCKLVVEEYYEVLDHCSSILNKYDDNVKAYFKRGKAHAAVWNAQEAQADFAKVLELDPALAPVVSRELRALEARIRQKDEEDKARFRGIFSH

Tested on: Hsp90 complexes in K562 cell extract
Assay: Nano-LC-MS/MS of PU-beads pull-downs
Assay type: binding
Conditions: for MAXIMUM matched peptides: maximum over fractions JA01-JA14; for Total fmol: protein isolated in PU-beads pull-downs, Waters Xevo QTof MS; for Matched Peptides by Fraction JA07: Run1, gel size cut <40; for Matched Peptides by Fraction JA14: Run2, gel size cut <40; for Matched Peptides by Fraction JA05: Run1, gel size cut 60-80; for Matched Peptides by Fraction JA12: Run2, gel size cut 60-80
Protocol: Protein cargo isolated from cell lysate with PU-beads or control-beads was subjected to proteomic analysis by nano liquid chromatography coupled to tandem mass spectrometry (nano LC-MS/MS). Initial protein identification was performed using the Mascot search engine, and was further evaluated using Scaffold Proteome Software (Tables 5a-d).
Lysates prepared as mentioned above were first pre-cleaned by incubation with control beads overnight at 4° C. […] Beads were washed with lysis buffer, proteins eluted by boiling in 2% SDS, separated on a denaturing gel and Coomassie stained according to manufacturer's procedure (Biorad). […] Analyses of the batch purified pools were done using a QSTAR-Elite hybrid quadrupole time-of-flight mass spectrometer (QTof MS) (AB/MDS Sciex), equipped with a nano spray ion source. Peptide mixtures (in 20 μL) are loaded onto a trapping guard column (0.3×5-mm PepMap C18 100 cartridge from LC Packings) using an Eksigent nano MDLC system (Eksigent Technologies, Inc) at a flow rate of 20 μL/min. […] Electrospray ionization (ESI) needle voltage was set at about 1800 V. The mass analyzer is operated in automatic, data-dependent MS/MS acquisition mode, with the threshold set to 10 counts per second of doubly or triply charged precursor ions selected for fragmentation scans. Survey scans of 0.25 sec are recorded from 400 to 1800 amu; up to 3 MS/MS scans are then collected sequentially for the selected precursor ions, recording from 100 to 1800 amu. The collision energy is automatically adjusted in accordance with the m/z value of the precursor ions selected for MS/MS. Selected precursor ions are excluded from repeated selection for 60 sec after the end of the corresponding fragmentation duty cycle. […] One missed tryptic cleavage site was allowed, precursor ion mass tolerance=0.4 Da fragment ion mass tolerance=0.4 Da, protein modifications were allowed for Met-oxide, Cys-acrylamide and N-terminal acetylation. MudPit scoring was typically applied with ‘require bold red’ activated, and using significance threshold score p<0.05. Unique peptide counts (or ‘spectral counts’) and percent sequence coverages for all identified proteins were exported to Scaffold Proteome Software (version 2_06_01, www.proteomesoftware.com) for further bioinformatic analysis (Table 5a). Using output from Mascot, Scaffold validates, organizes, and interprets mass spectrometry data, allowing more easily to manage large amounts of data, to compare samples, and to search for protein modifications.

Molecule | Matched Peptides by Fraction JA03 (PU-beads pull-down, Run1, gel size cut 110-150) | Matched Peptides by Fraction JA10 (PU-beads pull-down, Run2, gel size cut 110-150) | MAXIMUM matched peptides (PU-beads pull-down) | Total fmol [fmol] | Matched Peptides by Fraction JA07 (PU-beads pull-down) | Matched Peptides by Fraction JA14 (PU-beads pull-down) | Matched Peptides by Fraction JA06 (PU-beads pull-down, Run1, gel size cut 40-60) | Matched Peptides by Fraction JA13 (PU-beads pull-down, Run2, gel size cut 40-60) | Matched Peptides by Fraction JA05 (PU-beads pull-down) | Matched Peptides by Fraction JA12 (PU-beads pull-down)
B1 | 9 | 17 | 17 | 5.9277 |  |  |  |  |  | 
B2 |  |  | 6 | 6.8808 | 5 | 6 |  |  |  | 
B3 |  |  | 6 | 14.4606 |  |  | 5 | 6 |  | 
B4 |  |  | 24 | 19.0068 |  |  |  |  | 14 | 24
B5 |  |  | 4 | 4.9413 | 3 | 4 |  |  |  | 
B6 |  |  | 50 | 58.4334 |  |  |  |  | 37 | 50
B7 |  |  | 5 | 1.5935 |  |  |  |  | 5 | 
B8 |  |  | 21 | 6.0454 |  |  |  |  | 11 | 21
B9 |  |  | 20 | 32.7606 | 20 | 20 |  |  |  | 
